Patent publication US20210388108A1 (GLYCARDIAL DIAGNOSTICS S L, published 2021)
These are yes or no findings as the source states them, for the method shown. Some entries that bind do so weakly or less than the wild type. Each block holds one binder with its values, some of them ahead of it.

Assays:
Test in all cases: QC ELISA of the IgG on its target peptide
[1] = biological target: T1, Ag6G (Bio-CSTNN(GlcNAc)PSQAK)
T1 sequence (peptide, GlcNAc on Asn at position 5; N-terminal biotin (Bio-) as printed in Table 3): CSTNNPSQAK

[2] = biological target: T2, Ag7G (Bio-WKMLN(GlcNAc)TSSLE)
T2 sequence (peptide, GlcNAc on Asn at position 5; N-terminal biotin (Bio-) as printed in Table 3): WKMLNTSSLE

[3] = biological target: T3, Ag5G (Bio-SRLAN(GlcNAc)LTQGE)
T3 sequence (peptide, GlcNAc on Asn at position 5; N-terminal biotin (Bio-) as printed in Table 3): SRLANLTQGE

[4] = biological target: T4, Ag3G (Bio-PGVCN(GlcNAc)ETMMA)
T4 sequence (peptide, GlcNAc on Asn at position 5; N-terminal biotin (Bio-) as printed in Table 3): PGVCNETMMA

binding [1]: binds
B1: Ag6G-1 (antibody, V domains shown)
VH: QSVEESGGRLVTPGTPLTFSCTASGFSLNSYYMSWVRQAPGKGLEWIGLVSTDGSAYYASWAKGRFTISRTSTTVDLKLTSLTTEDAATYFCARDRGSDSYIDQLDLWGQGTLVTISS
VL: DPMLTQTPSSVSAAVGGTVTANCQSSQSVRGNNDLAWYQQKPGQPPKLLIYDASKLASGVPSRFKGSGSGTDFTLTISDLECADAATYYCQQGHRVEDVANAFGGGTEVVVKR

binding [2]: binds
B2: Ag7G-19 (antibody, V domains shown)
VH: QSVEESGGRLVTPGTPLTLTCTVSGIDLSSNAMSWVRQAPGGGLEWIGTINTNGKTYDASWMNGRFTISKTSSTTVDLKMTSLTTEDTATYFCARGRWTGNTGWYIDLWGPGTLVTVSS
VL: YVMMTQTPSSTSAAVGGTVTINCQSSQSVYSNSFLSWYQQKPGQLPKLLIYKASTLASGVPSRFKGSGSGTQFTLTISELQCDDAATYYCQGGYVDWMRAFGGGTEVVVKR

binding [3]: binds
B3: Ag5G-17 (antibody, V domains shown)
VH: QEQLVESGGRLVTPGTPLILTCTASGFSLSRHTMSWVRQAPGKGLEWIGYITYGGSAYSANWAKGRFTISRTSTTVDLKMNSLTTEDTATYFCGRVGAYGAYYDLWGQGTLVTVSS
VL: DVVMTQTPSSKSVPVGDTVTINCQASESVYVNNFLSWYRQKPGQPPKRLIYSASTLASGVPSRFSGSGSGTQFTLTISDVVCDDAATYYCAGYHEFNTDGNAFGGGTEVVVKR

binding [4]: binds
B4: Ag3G-4 (antibody, V domains shown)
VH: QEQLEESGGRLVTPGTPLTLTCAVSGFSLSSYGVSWVRQAPGKGLEYIGYIDVSGSAYYASWARGRFTISRTSTTVDLKMTSLTTEDTATYFCARGSPGYDANDLWGQGTLVTISS
VL: DVVMTQTPASVEAAVGGTVTIKCQASQSISTYLSWHQQKPGQPPKLLIYRASTLESGVPSRFKGSGSGTEFALTISDLECADAATYYCQTAHDSSGRGTWGVIFGGGTEVVVKR

binding [2]: binds
B5: Ag7G-17 (antibody, V domains shown)
VH: AQSLEESGGRLVTPGTPLTLTCTASGFSLNTYYWVSWVRQAPGKGLEWIGHINPDGTAYYATWAKGRFTISRTSTTVDLKITSPTTEDTATYFCARLGSTGDNFNIWGPGTLVTISS
VL: YVMMTQTPASVSEPVGGTVTIKCQASQSIDSYLAWYQQKPGQPPKLLIYKASTLASGVPSRFSGSGSGTQFTLTISDVECDDAATYYCQCSHYGSNWLGPFGGGTEVVVKR
